Laboratory results reported in paper PMC6549186.
These are yes or no findings as the source states them, for the method shown. Binding seen in cells or lysates may run through a third protein. Some results given as binding are weak or reduced against the parent protein; the word gives no strength.

Chains of the proteins cited; added tags and fusions are not shown. Residues count along the entry.
UniProt Q15125, residues 2-230: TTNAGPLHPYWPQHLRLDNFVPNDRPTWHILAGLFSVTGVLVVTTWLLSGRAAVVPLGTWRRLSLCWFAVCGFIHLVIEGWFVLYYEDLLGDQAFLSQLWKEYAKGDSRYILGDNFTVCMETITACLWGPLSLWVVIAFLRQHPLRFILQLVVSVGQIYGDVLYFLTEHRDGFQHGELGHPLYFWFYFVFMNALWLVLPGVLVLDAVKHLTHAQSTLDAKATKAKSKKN

Target: human EBP, co-expressed as N-terminal His-tag EBP and N-terminal Strep-tag EBP (human) (UniProt Q15125)
Assay: pull-down; His-EBP and Strep-EBP co-expressed in HEK-293S GnTI- cells; purified on Strep-Tactin column and by gel filtration; incubated with Strep-Tactin Sepharose at 4 °C for 2 h; Western blot with anti-His or anti-Strep

human EBP, co-expressed as N-terminal His-tag EBP and N-terminal Strep-tag EBP (from UniProt Q15125 2-230) (enzyme)
binding: binds
